According to PubChem BioAssay (NCATS):
The shares of active, inactive and inconclusive entries below differ from those in the screen. Where the call is inconclusive, the potency comes from a doubtful curve fit. The source made the active and inactive calls. Calls come from the whole dose curve; as a rule, active = well fitted cell-killing curve with a large enough effect; inconclusive = small, poorly fitted or top-dose-only effect, or effect the other way; inactive = no such curve, though single readings can be large or run the other way.

assay: Quantitative High-Throughput drug screen in 47 multiple myeloma cell lines against the NCATS MIPE library collection: KMS34_JCRB cell viability assay (AID 1918985); conditions: KMS34 myeloma viability, CellTiter-Glo ATP luminescence, 48 h; viability, percent of control: at 45.8 µM (top of the series); note: nearly all actives have a fitted effect of over 40% in size;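 for viability, percent of control: 100% = DMSO-only wells and 0% = media-only wells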
Method in brief: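 Plated at 500 cells per well, myeloma lines received MIPE 4.0 compounds by pin tool. Following 48 h culture at 37 °C, CellTiter-Glo luminescence gave viability relative to DMSO and media-only controls.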
Potency is the fitted concentration of half-maximal effect.

Row | SMILES | Potency | viability, percent of control
1 | CO[C@H]1/C=C\O[C@@]2(C)Oc3c(C)c(O)c4c(O)c(c5c(nc6cc(C)ccn65)c4c3C2=O)NC(=O)C(C)=CC=C[C@H](C)[C@H](O)[C@@H](C)[C@@H](O)[C@@H](C)[C@H](OC(C)=O)[C@H]1C | inconclusive: 18.7 µM [cytotoxic, partial curve] | –
2 | N#Cc1cc(NC(=O)Nc2nnc(-c3ccncc3)s2)ccc1-c1cn[nH]c1 | inconclusive: 8.33 µM [cytotoxic, full curve, poor fit] | –
3 | CN(C)c1ccc(O)c2c1C[C@H]1C[C@H]3[C@H](N(C)C)C(=O)C(C(N)=O)=C(O)[C@@]3(O)C(=O)C1=C2O | active: 16.6 µM | –
4 | C=C[C@@H]1CN2CCC1C[C@@H]2C(O)c1ccnc2ccc(OC)cc12 (some centres not stated) | inconclusive: 3.32 µM [cytotoxic, full curve, poor fit] | –
5 | CCOC(=O)N[C@@H]1CC[C@@H]2[C@@H](C1)C[C@H]1C(=O)O[C@H](C)[C@H]1[C@@H]2C=Cc1ccc(-c2cccc(F)c2)cn1 | inconclusive: 18.7 µM [cytotoxic, partial curve, poor fit] | –
6 | CC[C@H](C=C[C@@H](C)[C@H]1CC[C@H]2[C@@H]3CC=C4C[C@@H](O)CC[C@]4(C)[C@@H]3CC[C@]12C)C(C)C | – | inactive: 116% [at 23.2 µM]
7 | N=C(N=C(N)N)N1CCOCC1 | – | inactive: 111%
8 | O=C(NC1CCOCC1)c1ccc(-c2cc(-c3cn[nH]c3-c3ccccn3)ccn2)cc1 | inconclusive: 0.0012 µM [cytotoxic, full curve, poor fit] | –
9 | N[C@@H](Cc1cc(I)c(Oc2cc(I)c(O)c(I)c2)c(I)c1)C(=O)O | inconclusive: 37.2 µM [cytotoxic, single point] | –
10 | CCC(=O)N[C@H]1CC[C@H](C(=O)N(C)c2ccc(-c3nc4ccccc4o3)cc2)C1 | – | inactive: 89.3%
11 | COc1ccccc1OCCNCC(O)COc1cccc2[nH]c3ccccc3c12 (configuration not stated) | inconclusive: 20.9 µM [cytotoxic, single point] | –
12 | CC1(C)CCC(C)(C)c2cc(NC(=O)c3ccc(C(=O)O)cc3)ccc21 | inconclusive: 26.4 µM [cytotoxic, partial curve, poor fit] | –
13 | CC[C@H]1OC(=O)[C@H](C)[C@@H](O[C@H]2C[C@@](C)(OC)[C@@H](O)[C@H](C)O2)[C@H](C)[C@@H](O[C@@H]2O[C@H](C)C[C@H](N(C)C)[C@@H]2O)[C@](C)(OC)C[C@@H](C)C(=O)[C@H](C)[C@@H](O)[C@]1(C)O | inconclusive: 0.0033 µM [rising, full curve, poor fit] | –
14 | CCCCCCCCCC(=O)N[C@@H](Cc1c[nH]c2ccccc12)C(=O)N[C@H](CC(N)=O)C(=O)N[C@@H](CC(=O)O)C(=O)N[C@@H]1C(=O)NCC(=O)N[C@@H](CCCN)C(=O)N[C@@H](CC(=O)O)C(=O)N[C@H](C)C(=O)N[C@@H](CC(=O)O)C(=O)NCC(=O)N[C@H](CO)C(=O)N[C@@H]([C@@H](C)CC(=O)O)C(=O)N[C@@H](CC(=O)c2ccccc2N)C(=O)O[C@@H]1C | inconclusive: 0.0047 µM [rising, full curve, poor fit] | –
15 | CCOC(=O)Nc1ccc(NCc2ccc(F)cc2)nc1N | inconclusive: 0.001 µM [cytotoxic] | –
16 | CCn1cc(C(=O)O)c(=O)c2cc(F)c(N3CCNCC3)nc21 | inconclusive: 0.0042 µM [rising, full curve] | –
17 | CCC[C@@H](NC(=O)[C@@H]1[C@H]2CCC[C@@H]2CN1C(=O)[C@@H](NC(=O)[C@@H](NC(=O)c1cnccn1)C1CCCCC1)C(C)(C)C)C(=O)C(=O)NC1CC1 | inconclusive: 20.9 µM [cytotoxic, partial curve, poor fit] | –
18 | CNc1nc(Nc2ccc(C(=O)N3CCOCC3)cc2OC)ncc1Cl | inconclusive: 0.264 µM [cytotoxic, full curve, poor fit] | –
19 | CC(=O)O[C@]1(C(C)=O)CC[C@H]2[C@@H]3C=C(Cl)C4=CC(=O)[C@@H]5C[C@H]5[C@]4(C)[C@@H]3CC[C@@]21C | inconclusive: 37.2 µM [cytotoxic, single point] | –
20 | CCN(CC)CCOc1ccc(C(=C(Cl)c2ccccc2)c2ccccc2)cc1 | inconclusive: 0.0105 µM [rising, full curve, poor fit] | –
21 | O=c1[nH]c(=O)n(C2CCCO2)cc1F (configuration not stated) | – | inactive: 102% [at 92.2 µM]
22 | O=C(O)c1ccc(-c2cc3cccnc3c(-c3ccc4nonc4c3)n2)cc1 | active: 14.8 µM | –

Some of these compounds in order of length of the SMILES, falling:
Row | SMILES | Potency | viability, percent of control
6 | CC[C@H](C=C[C@@H](C)[C@H]1CC[C@H]2[C@@H]3CC=C4C[C@@H](O)CC[C@]4(C)[C@@H]3CC[C@]12C)C(C)C | – | inactive: 116% [at 23.2 µM]
4 | C=C[C@@H]1CN2CCC1C[C@@H]2C(O)c1ccnc2ccc(OC)cc12 (some centres not stated) | inconclusive: 3.32 µM [cytotoxic, full curve, poor fit] | –
16 | CCn1cc(C(=O)O)c(=O)c2cc(F)c(N3CCNCC3)nc21 | inconclusive: 0.0042 µM [rising, full curve] | –
